Publication PMC9436328
These are yes or no findings as the source states them, for the method shown. Some binding calls cover weakened binding; strength is not graded here.

Amino acid sequences for entries named in this document (tags omitted). Residues count along the entry.
UniProt D0N4E0, residues 23-170: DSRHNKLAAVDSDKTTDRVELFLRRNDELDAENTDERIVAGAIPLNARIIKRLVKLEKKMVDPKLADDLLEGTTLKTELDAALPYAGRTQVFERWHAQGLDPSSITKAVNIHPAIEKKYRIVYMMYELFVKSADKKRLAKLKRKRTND
UniProt D0N6E1, residues 21-162: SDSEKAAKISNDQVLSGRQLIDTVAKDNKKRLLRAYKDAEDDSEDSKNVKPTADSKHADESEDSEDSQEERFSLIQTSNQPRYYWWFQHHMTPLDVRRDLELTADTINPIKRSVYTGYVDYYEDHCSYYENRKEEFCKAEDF
UniProt D0NB60, residues 25-165: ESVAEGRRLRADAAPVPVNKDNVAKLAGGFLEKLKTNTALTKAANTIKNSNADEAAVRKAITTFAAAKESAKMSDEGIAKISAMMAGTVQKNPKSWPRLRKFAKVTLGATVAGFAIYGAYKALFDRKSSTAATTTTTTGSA
UniProt D0NPN8, residues 22-147: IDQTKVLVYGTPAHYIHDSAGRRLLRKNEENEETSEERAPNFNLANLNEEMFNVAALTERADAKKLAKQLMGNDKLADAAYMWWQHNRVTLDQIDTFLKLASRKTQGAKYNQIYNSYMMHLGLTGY
UniProt D0MZL5, residues 25-144: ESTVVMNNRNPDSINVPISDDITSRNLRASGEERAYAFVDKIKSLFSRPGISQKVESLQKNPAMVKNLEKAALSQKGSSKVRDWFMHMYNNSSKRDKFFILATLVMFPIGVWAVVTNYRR
UniProt D0N118, residues 24-240: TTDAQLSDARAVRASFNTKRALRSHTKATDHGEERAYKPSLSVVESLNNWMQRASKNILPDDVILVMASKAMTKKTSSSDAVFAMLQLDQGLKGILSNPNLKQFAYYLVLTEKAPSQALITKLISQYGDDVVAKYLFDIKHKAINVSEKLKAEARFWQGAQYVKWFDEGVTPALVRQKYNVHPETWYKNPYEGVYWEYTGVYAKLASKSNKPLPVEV
UniProt D0N4K2, residues 20-254: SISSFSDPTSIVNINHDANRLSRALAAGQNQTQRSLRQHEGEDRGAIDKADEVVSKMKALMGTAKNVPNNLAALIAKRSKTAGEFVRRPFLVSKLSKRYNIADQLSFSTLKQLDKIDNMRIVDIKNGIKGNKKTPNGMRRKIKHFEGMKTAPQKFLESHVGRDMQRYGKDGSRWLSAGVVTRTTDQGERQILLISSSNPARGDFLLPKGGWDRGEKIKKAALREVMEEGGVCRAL
UniProt D0NVS7, residues 34-349: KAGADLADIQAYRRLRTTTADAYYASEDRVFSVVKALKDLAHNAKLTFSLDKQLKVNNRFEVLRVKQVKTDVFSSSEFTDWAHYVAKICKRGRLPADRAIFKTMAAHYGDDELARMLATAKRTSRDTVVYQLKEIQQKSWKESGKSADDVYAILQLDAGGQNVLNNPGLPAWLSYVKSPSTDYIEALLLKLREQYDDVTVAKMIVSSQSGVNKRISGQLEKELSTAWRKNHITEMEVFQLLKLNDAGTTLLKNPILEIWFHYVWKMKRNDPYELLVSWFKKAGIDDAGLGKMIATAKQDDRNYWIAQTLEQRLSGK
UniProt D0NQC3, residues 20-213: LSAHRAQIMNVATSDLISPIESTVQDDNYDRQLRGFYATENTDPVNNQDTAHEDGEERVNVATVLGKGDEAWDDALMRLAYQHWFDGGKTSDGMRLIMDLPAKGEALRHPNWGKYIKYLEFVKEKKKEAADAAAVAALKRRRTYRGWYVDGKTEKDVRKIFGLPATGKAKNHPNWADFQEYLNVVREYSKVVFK
UniProt D0N8M5, residues 18-170: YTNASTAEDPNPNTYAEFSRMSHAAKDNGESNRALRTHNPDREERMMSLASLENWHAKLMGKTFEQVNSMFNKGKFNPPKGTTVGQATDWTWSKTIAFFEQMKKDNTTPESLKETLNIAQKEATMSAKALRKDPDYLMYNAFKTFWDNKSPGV
UniProt D0P3S7, residues 25-152: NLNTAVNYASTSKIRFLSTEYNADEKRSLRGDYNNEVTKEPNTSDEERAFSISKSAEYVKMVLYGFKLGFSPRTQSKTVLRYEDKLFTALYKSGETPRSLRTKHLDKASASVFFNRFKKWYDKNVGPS
UniProt F4JL11: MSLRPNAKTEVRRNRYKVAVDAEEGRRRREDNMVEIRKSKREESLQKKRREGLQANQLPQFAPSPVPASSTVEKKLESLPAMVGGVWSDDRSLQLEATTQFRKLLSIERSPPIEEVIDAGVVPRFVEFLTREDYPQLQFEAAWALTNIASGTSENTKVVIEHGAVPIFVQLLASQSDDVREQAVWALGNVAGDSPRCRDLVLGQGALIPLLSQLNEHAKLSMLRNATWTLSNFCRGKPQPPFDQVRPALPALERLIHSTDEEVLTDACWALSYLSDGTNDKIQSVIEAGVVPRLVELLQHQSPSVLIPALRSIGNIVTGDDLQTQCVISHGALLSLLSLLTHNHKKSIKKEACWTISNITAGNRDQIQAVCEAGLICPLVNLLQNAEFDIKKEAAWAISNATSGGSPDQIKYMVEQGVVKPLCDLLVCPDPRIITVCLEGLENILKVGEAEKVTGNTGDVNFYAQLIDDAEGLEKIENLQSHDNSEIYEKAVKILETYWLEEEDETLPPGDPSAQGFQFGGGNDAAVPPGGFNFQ
UniProt P14713: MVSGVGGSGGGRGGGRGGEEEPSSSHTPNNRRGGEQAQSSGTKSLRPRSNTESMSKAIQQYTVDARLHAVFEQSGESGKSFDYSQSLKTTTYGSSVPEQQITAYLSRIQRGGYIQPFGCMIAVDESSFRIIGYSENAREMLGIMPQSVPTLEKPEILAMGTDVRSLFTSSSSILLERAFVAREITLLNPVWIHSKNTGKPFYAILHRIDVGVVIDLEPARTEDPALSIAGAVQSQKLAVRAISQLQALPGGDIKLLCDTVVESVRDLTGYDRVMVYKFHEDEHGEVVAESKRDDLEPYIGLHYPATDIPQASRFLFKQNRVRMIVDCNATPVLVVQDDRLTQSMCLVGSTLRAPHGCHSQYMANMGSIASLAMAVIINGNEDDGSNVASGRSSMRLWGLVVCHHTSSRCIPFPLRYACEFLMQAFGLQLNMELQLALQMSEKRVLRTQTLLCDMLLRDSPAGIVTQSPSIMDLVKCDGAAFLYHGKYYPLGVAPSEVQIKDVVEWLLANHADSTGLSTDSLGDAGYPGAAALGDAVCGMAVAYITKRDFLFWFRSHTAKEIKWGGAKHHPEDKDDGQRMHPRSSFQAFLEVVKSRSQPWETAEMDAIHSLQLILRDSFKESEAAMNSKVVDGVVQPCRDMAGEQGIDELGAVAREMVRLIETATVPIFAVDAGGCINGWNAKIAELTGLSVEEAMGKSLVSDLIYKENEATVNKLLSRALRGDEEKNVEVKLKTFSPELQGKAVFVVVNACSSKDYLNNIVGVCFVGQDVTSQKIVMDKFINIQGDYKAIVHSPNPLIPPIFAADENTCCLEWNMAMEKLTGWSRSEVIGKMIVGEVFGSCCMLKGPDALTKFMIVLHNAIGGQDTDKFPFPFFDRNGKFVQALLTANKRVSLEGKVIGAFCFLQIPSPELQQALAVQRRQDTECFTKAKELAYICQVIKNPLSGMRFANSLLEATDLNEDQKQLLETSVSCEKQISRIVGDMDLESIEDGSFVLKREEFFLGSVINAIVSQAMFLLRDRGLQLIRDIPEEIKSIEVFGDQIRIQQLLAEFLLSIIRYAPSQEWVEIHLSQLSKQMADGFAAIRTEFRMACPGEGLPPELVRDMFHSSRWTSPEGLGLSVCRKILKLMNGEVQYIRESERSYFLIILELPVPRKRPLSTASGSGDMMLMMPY
UniProt Q96321: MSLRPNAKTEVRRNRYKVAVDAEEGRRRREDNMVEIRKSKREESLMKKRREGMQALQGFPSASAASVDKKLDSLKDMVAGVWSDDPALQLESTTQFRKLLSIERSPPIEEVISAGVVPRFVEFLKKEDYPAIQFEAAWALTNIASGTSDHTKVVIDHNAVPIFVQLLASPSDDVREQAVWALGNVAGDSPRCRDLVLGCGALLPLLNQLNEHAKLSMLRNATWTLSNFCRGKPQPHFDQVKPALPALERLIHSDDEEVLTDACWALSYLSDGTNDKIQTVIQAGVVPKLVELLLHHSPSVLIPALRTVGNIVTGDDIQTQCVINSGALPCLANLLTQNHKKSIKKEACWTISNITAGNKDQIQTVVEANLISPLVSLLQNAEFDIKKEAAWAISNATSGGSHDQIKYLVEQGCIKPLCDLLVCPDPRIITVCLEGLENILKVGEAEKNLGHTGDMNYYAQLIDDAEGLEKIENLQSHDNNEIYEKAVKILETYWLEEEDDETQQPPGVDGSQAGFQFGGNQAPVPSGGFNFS
UniProt Q9LKG8: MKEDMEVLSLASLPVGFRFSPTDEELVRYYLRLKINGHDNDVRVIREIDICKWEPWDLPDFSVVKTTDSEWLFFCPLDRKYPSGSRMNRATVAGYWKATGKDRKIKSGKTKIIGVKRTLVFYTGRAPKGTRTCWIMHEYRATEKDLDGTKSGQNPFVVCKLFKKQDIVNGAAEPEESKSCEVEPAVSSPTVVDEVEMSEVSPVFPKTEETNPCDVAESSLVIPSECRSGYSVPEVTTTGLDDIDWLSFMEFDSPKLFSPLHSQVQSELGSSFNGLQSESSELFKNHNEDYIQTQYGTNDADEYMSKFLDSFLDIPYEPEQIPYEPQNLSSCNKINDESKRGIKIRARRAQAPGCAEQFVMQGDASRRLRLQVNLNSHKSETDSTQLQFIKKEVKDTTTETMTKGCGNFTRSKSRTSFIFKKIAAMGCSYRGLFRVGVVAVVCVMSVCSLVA
UniProt P47998: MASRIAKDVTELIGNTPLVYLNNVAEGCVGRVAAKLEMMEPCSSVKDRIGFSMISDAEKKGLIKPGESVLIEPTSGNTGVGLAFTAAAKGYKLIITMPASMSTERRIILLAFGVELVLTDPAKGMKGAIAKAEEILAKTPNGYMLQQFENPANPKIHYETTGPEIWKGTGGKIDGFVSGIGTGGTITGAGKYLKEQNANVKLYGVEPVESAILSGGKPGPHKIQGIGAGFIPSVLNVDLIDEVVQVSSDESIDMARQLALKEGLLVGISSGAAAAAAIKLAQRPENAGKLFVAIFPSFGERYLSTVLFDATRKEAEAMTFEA
UniProt Q9XIC5: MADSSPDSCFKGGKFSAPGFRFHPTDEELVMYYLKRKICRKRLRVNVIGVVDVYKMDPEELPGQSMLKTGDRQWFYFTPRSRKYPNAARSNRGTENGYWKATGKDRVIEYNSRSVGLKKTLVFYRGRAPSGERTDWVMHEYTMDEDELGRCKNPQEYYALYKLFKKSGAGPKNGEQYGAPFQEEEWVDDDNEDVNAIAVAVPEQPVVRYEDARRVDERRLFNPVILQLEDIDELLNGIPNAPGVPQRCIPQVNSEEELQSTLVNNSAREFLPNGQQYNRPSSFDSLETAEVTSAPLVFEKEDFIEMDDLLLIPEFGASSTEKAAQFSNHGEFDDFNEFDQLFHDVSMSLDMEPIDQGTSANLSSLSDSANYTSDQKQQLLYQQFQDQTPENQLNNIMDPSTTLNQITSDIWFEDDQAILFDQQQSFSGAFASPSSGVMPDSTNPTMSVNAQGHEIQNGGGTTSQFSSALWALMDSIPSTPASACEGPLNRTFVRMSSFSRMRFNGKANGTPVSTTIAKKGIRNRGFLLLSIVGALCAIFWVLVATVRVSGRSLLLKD

How the values were obtained:
Assay in all cases: two-hybrid
[1] = target: Pi22798 (Phytophthora infestans) (UniProt D0N4E0)
[2] = target: Pi06099 (Phytophthora infestans) (UniProt D0N6E1)
[3] = target: Pi09218 (Phytophthora infestans) (UniProt D0NB60)
[4] = target: Pi14371 (Phytophthora infestans) (UniProt D0NPN8)
[5] = target: Pi03192 (Phytophthora infestans) (UniProt D0MZL5)
[6] = target: Pi04339 (Phytophthora infestans) (UniProt D0N118)
[7] = target: Pi06308 (Phytophthora infestans) (UniProt D0N4K2)
[8] = target: Pi17316 (Phytophthora infestans) (UniProt D0NVS7)
[9] = target: Pi15287 (Phytophthora infestans) (UniProt D0NQC3)
[10] = target: Pi07555 (Phytophthora infestans) (UniProt D0N8M5)
[11] = target: Pi21388 (Phytophthora infestans) (UniProt D0P3S7)

**Q.** For “AT4G16143, AtIMPA-2, importin α-isoform 2 (from UniProt F4JL11 1-535)”, which binding [1] is on record?
**A.** no binding

**Q.** With FL AtPhyB (from UniProt P14713 1-1172) as the molecule, how does the binding [2] read?
**A.** binds

**Q.** With “AT3G06720, AtIMPA-1 importin-α (from UniProt Q96321 1-532)” as the molecule, how does the binding [1] read?
**A.** no binding

**Q.** For “AT5G24590, AtTIP, TCV-interacting protein, AtNAC91 (from UniProt Q9LKG8 1-451)”, which binding [3] is on record?
**A.** no binding

**Q.** Which binding [4] does the source give for “AT4G14880, O-acetylserine(thiol)lyase (from UniProt P47998 1-322)” here?
**A.** no binding

**Q.** How did the binding [5] turn out when “AT1G34190, NAC domain containing protein 17 (from UniProt Q9XIC5 1-557)” was run?
**A.** no binding

B1: AT3G58040, RING finger domain protein (protein, UniProt Q9M2P4 1-308)
chain: MAPGGSALKEVMESNSTGMDYEVKTAKVEVNNNKPTKPGSAGIGKYGIHSNNGVYELLECPVCTNLMYPPIHQCPNGHTLCSNCKLRVQNTCPTCRYELGNIRCLALEKVAESLEVPCRYQNLGCHDIFPYYSKLKHEQHCRFRPYTCPYAGSECSVTGDIPTLVVHLKDDHKVDMHDGCTFNHRYVKSNPHEVENATWMLTVFNCFGRQFCLHFEAFQLGMAPVYMAFLRFMGDENEAKKFSYSLEVGAHGRKLTWQGIPRSIRDSHRKVRDSQDGLIIPRNLALYFSGGDRQELKLRVTGRIWKEE
**Q.** Which binding [6] does the source give for B1 here?
**A.** no binding

B2: AT4G27060, AtTORTIFOLIA1, microtubule-associated protein (protein, UniProt Q9T041 1-864)
chain: MSTPTTSGSAAKPTRPARSSSLATRSCSNSGSLTSFQAMVELKQKILTSISKLADRDTYQIAVEDLEKTIQSLTPETLPMFLNCLYDSCSDPKPAVKKECLHLLSYVCSLHCDSTAAHLTKIIAQIVKRLKDSDSGVRDACRDTIGALSGIYLKGKEEGTNTGSASLAVGLFVKPLFEAMGEQNKVVQSGASMCMARMVESAASPPVTSFQKLCPRICKLLSNSSFLAKASLLPVVSSLSQVGAIAPQSLESLLESIHDCLGSTDWVTRKAAAETLTALASHSSGLIKEKTDSTITVLETCRFDKIKPVRESVTEALQLWKKISGKYVDGASDDSKLSASEQLGSEKNGEKRSNLADLMKKEASDGSTLSPDSASKGKGCFPEKAVGLLKKKAPVLSDKDFNPEFFQRLERRQSVEVVVPRRCKNNDEEESGLDDLNAMGSSNRLKNTQADDKQVKGRFDGNGSQARTSGDDKAGVVNGKETPGHHAPVSNTDNQSEGSFTSNRGNWSAIQRQLLQLERQQTNLMNMLQEFIGGSHDSMVTLEGRVRGLERIVEDMARDLSISSGRRANLTAGFGKYNSFANYPTGKYNGRAPGERGSQTDGAMRGRMWNSDMADDWFIPPHAASRNGQAGPRRSPRSEQYENEHMGNGRRGWDNKASGTIRFGEGPSARSVWQASKDEATLEAIRVAGEDGAVPRPTRVAVAPEAEAMGDDDNEGQERDPIWVSWSNAMHSLRVGDIDAAYAEVLCAGDQHLVIKLMDKTGPSLDQMSNEIANEALNFISQFLLDHSLYDICLSWSQQLLELVLQDGADTFGVPMELKTEILYNLQDACSTMDPPEDWEGPAPEQLVVQLASVWEIDLQQFDK
**Q.** For B2, which binding [7] is on record?
**A.** no binding

B3: AT1G14000, AtVIK, VH1-interacting kinase (protein, UniProt Q9XI87 1-438)
chain: MSSDSPAAGDGGEQAAAGTSVPSPSYDKQKEKARVSRTSLILWHAHQNDAAAVRKLLEEDPTLVHARDYDKRTPLHVASLHGWIDVVKCLLEFGADVNAQDRWKNTPLADAEGARKQKMIELLKSHGGLSYGQNGSHFEPKPVPPPIPKKCDWEIEPAELDFSNAAMIGKGSFGEIVKAYWRGTPVAVKRILPSLSDDRLVIQDFRHEVDLLVKLRHPNIVQFLGAVTERKPLMLITEYLRGGDLHQYLKEKGGLTPTTAVNFALDIARGMTYLHNEPNVIIHRDLKPRNVLLVNSSADHLKVGDFGLSKLIKVQNSHDVYKMTGETGSYRYMAPEVFKHRRYDKKVDVFSFAMILYEMLEGEPPFANHEPYEAAKHVSDGHRPTFRSKGCTPDLRELIVKCWDADMNQRPSFLDILKRLEKIKETLPSDHHWGLFTS
**Q.** With B3 as the molecule, how does the binding [8] read?
**A.** no binding

B4: AT5G24660, AtLSU2, response to low sulfur 2 (protein, UniProt Q9FIR9 1-94)
chain: MGKGGNYVTVAASEVDELRRKNGEMEKAVEEMKKEMLQLWRRTQVAEEAEERLCSQLAELEAESLDQARDYHSRIIFLMNELSRLSSDSASASP
**Q.** How did the binding [9] turn out when B4 was run?
**A.** no binding

B5: AT5G28770, bZIP protein BZO2H3 (protein, UniProt B9DGI8 1-314)
chain: MEKVFSDEEISGNHHWSVNGMTSLNRSASEWAFNRFIQESSAAADDGESTTACGVSVSSPPNVPVDSEEYRAFLKSKLNLACAAVAMKRGTFIKPQDTSGRSDNGGANESEQASLASSKATPMMSSAITSGSELSGDEEEADGETNMNPTNVKRVKRMLSNRESARRSRRRKQAHLSELETQVSQLRVENSKLMKGLTDVTQTFNDASVENRVLKANIETLRAKVKMAEETVKRLTGFNPMFHNMPQIVSTVSLPSETSNSPDTTSSQVTTPEIISSGNKGKALIGCKMNRTASMRRVESLEHLQKRIRSVGDQ
**Q.** How did the binding [10] turn out when B5 was run?
**A.** no binding

B6: AT3G10190, AtCML36, calmodulin-like 36 (protein, UniProt Q9SS31 1-209)
chain: MKLAKLIPKRFFIRSKDRSTVSKSPTAFSFGSASSSSGQDCKNSGGDGGGGSVTPTSILPEVPSPYSYVEILQAFKLIDRDNDGAVSRHDLESLLSRLGPDPLTEEEINVMLKEVDCDGDGTIRLEELASRVVSLDPARDSTELKETFEFFDADRDGLISADELLRVFSTIGDERCTLDDCKRMIADVDEDGDGFVCFTEFSRMMDLQR
**Q.** For B6, which binding [11] is on record?
**A.** no binding
